Data as given in paper PMC11303563 (Communications Medicine, 2024).

Assay: Measurement of serum T3 concentration (LC-MS)
Details: 3 weeks; for Serum T3: HFD mice, 1 μmol/kg day, mean ± SEM (n = 9–10); for serum T3, Calculated Amount (LC-MS): individual mouse serum sample, 1 umol/kg

Structure (SMILES) | Serum T3 | serum T3, Calculated Amount (LC-MS)
Cc1cc(OCC(=O)O)cc(C)c1Cc1ccc(O)c(C(C)C)c1 [GC-1] | below the quantification limit; also recorded: B.L.Q | -0.913 nM and -0.290 nM and -0.522 nM and 0.038 nM and -0.629 nM and -0.834 nM and 0.652 nM
N[C@@H](Cc1cc(I)c(Oc2ccc(O)c(I)c2)c(I)c1)C(=O)O [T3, triiodothyronine] | 743.5 ± 78.0 ng/dL | 9.522 nM and 5.437 nM and 8.214 nM and 11.155 nM and 8.687 nM and 16.567 nM and 14.446 nM and 14.365 nM and 15.196 nM and 10.628 nM
O=C(O)Cc1cc(C(F)(F)F)c(Cc2ccc(O)c3ccccc23)c(C(F)(F)F)c1 [ZTA-261] | below the quantification limit; also recorded: B.L.Q | -0.749 nM and -0.807 nM and 0.305 nM and -0.893 nM and -0.863 nM and -0.804 nM and -1.044 nM and -0.949 nM

Several values for one entry are separate records, joined by “and”; a condition that tells them apart may be missing. Equal values may be shown once. Entries after “also recorded” stand apart in the source; their conditions may differ.
